Assay results taken from paper PMC6529640, “Bacterioferritin of Magnetospirillum gryphiswaldense Is a Heterotetraeicosameric Complex Composed of Functionally Distinct Subunits but Is Not Involved in Magnetite Biomineralization” (mBio, 2019).
No constants are given. Whether binding was seen depends on the method and setting. Some results given as binding are weak or reduced against the parent protein; the word gives no strength.

Sequences of proteins named here, by UniProt entry; tags and fusion partners are left off.
UniProt A0ACM8UJ62: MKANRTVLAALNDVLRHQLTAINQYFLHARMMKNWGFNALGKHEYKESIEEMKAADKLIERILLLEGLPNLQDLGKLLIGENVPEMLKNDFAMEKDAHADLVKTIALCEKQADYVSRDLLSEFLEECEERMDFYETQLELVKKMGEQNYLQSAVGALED

Legend:
[1] = target: Bfr2 of MSR-1 expressed alone from pET-51b-Bfr2 (Magnetospirillum gryphiswaldense MSR-1); test: negative-stain transmission electron microscopy; purified protein adsorbed on carbon-coated copper grids, 2% uranyl acetate; diameters of at least 100 particles, compared with horse spleen ferritin; both purified
[2] = target: Bfr2 of MSR-1 expressed alone from pET-51b-Bfr2 (Magnetospirillum gryphiswaldense MSR-1); test: native gel or EMSA; BN-PAGE of purified proteins on polyacrylamide gradient gels, run at 4°C, Coomassie stained; Bfr2 and Bfr12 ~22 μM, Bfr1 ~30 μM in 50 mM Tris-HCl, 50 mM NaCl, pH 8.0, or Bfr12 dialysed against 50 mM imidazole-HCl, 50 mM NaCl, pH 7; for Bfr12 also a second dimension of SDS-PAGE (2D-BN/SDS-PAGE); both purified
[3] = target: Bfr2 (MSR1_27040) of Magnetospirillum gryphiswaldense MSR-1, bacterial two-hybrid fusions (Magnetospirillum gryphiswaldense MSR-1); test: two-hybrid; bacterial two-hybrid (T18 and T25 domains of B. pertussis CyaA) in E. coli BTH101; cell suspensions spotted on LB-X-Gal-IPTG, 30°C, 20 h; blue colonies; empty pUT18c and pKNT25 as controls; in the rows the T25 fusion is the binder and the T18 fusion the target

binding [1] | binding [2] | binding [3] | Substance
binds | binds |  | Bfr2 of MSR-1 expressed alone from pET-51b-Bfr2 (from UniProt A0ACM8UJ62 1-159)
 |  | binds | Bfr2 (MSR1_27040) of Magnetospirillum gryphiswaldense MSR-1, bacterial two-hybrid fusions (from UniProt A0ACM8UJ62 1-159)
